These results are taken from doi:10.1101/2022.08.02.502465.

Amino acid sequences for entries named in this document (tags omitted).
UniProt P0A988, whole entry: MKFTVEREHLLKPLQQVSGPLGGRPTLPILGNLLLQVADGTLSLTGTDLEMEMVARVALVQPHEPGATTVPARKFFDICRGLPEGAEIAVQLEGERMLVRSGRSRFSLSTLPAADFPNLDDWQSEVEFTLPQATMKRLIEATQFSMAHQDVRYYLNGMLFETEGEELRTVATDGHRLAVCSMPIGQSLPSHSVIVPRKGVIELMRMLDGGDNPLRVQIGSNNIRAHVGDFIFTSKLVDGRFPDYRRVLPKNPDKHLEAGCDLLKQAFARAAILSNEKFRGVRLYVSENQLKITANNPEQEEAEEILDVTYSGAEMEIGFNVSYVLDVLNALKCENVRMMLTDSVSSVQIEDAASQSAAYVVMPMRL

The assay has as its target DNA sliding clamp β (E. coli), P0A988. As to the kind of experiment: SEC. The settings on record: remark: other sources report otherwise.

No constants are given. Whether binding was seen depends on the method and setting.

B1: E. coli DNA ligase LigA, P15042 1-671 (enzyme)
chain: MESIEQQLTELRTTLRHHEYLYHVMDAPEIPDAEYDRLMRELRELETKHPELITPDSPTQRVGAAPLAAFSQIRHEVPMLSLDNVFDEESFLAFNKRVQDRLKNNEKVTWCCELKLDGLAVSILYENGVLVSAATRGDGTTGEDITSNVRTIRAIPLKLHGENIPARLEVRGEVFLPQAGFEKINEDARRTGGKVFANPRNAAAGSLRQLDPRITAKRPLTFFCYGVGVLEGGELPDTHLGRLLQFKKWGLPVSDRVTLCESAEEVLAFYHKVEEDRPTLGFDIDGVVIKVNSLAQQEQLGFVARAPRWAVAFKFPAQEQMTFVRDVEFQVGRTGAITPVARLEPVHVAGVLVSNATLHNADEIERLGLRIGDKVVIRRAGDVIPQVVNVVLSERPEDTREVVFPTHCPVCGSDVERVEGEAVARCTGGLICGAQRKESLKHFVSRRAMDVDGMGDKIIDQLVEKEYVHTPADLFKLTAGKLTGLERMGPKSAQNVVNALEKAKETTFARFLYALGIREVGEATAAGLAAYFGTLEALEAASIEELQKVPDVGIVVASHVHNFFAEESNRNVISELLAEGVHWPAPIVINAEEIDSPFAGKTVVLTGSLSQMSRDDAKARLVELGAKVAGSVSKKTDLVIAGEAAGSKLAKAQELGIEVIDEAEMLRLLGS
Consider B1, for which the binding entry is given as “no binding (tested: 10 μM)”.
